Some of these results come from one statement about several compounds together. At least one compound was matched to its structure with a doubt left.
Tested on: mixture of aerobic populations from more than 30 cooling systems in North America
Assay: Non-oxidative antimicrobial efficiency test in cooling water (ASTM E645-02a)
Format: cell-based, bacteria (specific species not identified)
Settings: 50 ppm; after 60 min contact time
Experimental: Antimicrobial efficiency of the synthesized compounds was tested using a non-oxidative antimicrobial efficiency test procedure according to ASTM method for microbiocide efficiency in cooling water (E645-02a, 2005). The bacteria used in the efficacy testing comprised a mixture of aerobic populations from more than 30 cooling systems in North America. The specific species were not identified. Those species were grown on R2A agar.
In one experiment, various concentrations (0 ppm, 5 ppm, 10 ppm, 20 ppm, 30 ppm, 40 ppm, and 50 ppm) of Compound 1 were applied to bacteria in water. The log 10 concentration in colony forming units (CFU/ml) was measured at four time points (0 min, 60 min, 240 min, and 1440 min).
The microbial activity of Compounds 1-4 at a concentration of 50 ppm was tested according to the same procedure described above.
The antimicrobial activity of Compound 4 was tested using the same procedures as described above.

CCCCCCCCCCCCCCCCCC[N+](C)(C)CC(O)CN(CCN(CC(O)C[N+](C)(C)C)CC(O)C[N+](C)(C)CCCCCCCCCCCCCCCCCC)CCN(CC(O)C[N+](C)(C)C)CC(O)C[N+](C)(C)CCCCCCCCCCCCCCCCCC.[Cl-].[Cl-].[Cl-].[Cl-].[Cl-] (stereo not shown) [Compound 4]
reduction in CFUs: significant reduction in CFUs
